Measured values: the supplement of paper PMC6078165
± gives the standard deviation of the averaged measurements. Values are relative to the signal before dosing, not to a vehicle control; the signal also falls without drug.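 Labels refer to human fibroblasts, largely primary: uterine (C12385, HUF), lung (H6013), bone (Hs27A), adrenal (HADF), skin (WS1), plus mammary HMF and breast cancer-associated Hs343T. Cancer lines are basal-like or mesenchymal-like triple-negative breast cancer. The paper counts as hits responses shifting over 3x the replicate standard deviation. The tissue of the other fibroblasts is not given here.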

Tested on: HCC1143
Assay: relative JC-1 red fluorescence (viability) vs pre-drug, coculture with fibroblast (fraction); higher = more viable cancer cells
Protocol: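 JC-1 labelled TNBC cells cocultured 1:1 (1,500 cells each) with CellTrace Violet stained primary or stromal fibroblasts in 384-well plates in FluoroBrite medium, treated with one of 42 anticancer drugs at 0.1, 1, 10 or 100 uM. JC-1 red fluorescence (mitochondrial integrity in cancer cells only) was read by plate reader every 8 h for 72 h. Values are normalised to each well's pre-drug value. The stock of one drug was tenfold lower, so its dose labels may be too high.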

CC/C(=C(\c1ccccc1)c1ccc(OCCN(C)C)cc1)c1ccccc1 [Tamoxifen]
relative JC-1 red fluorescence
Conditions | 8 h | 16 h | 24 h | 32 h | 40 h | 48 h | 56 h | 64 h | 72 h
1 µM, coculture fibroblast: C12385 | – | – | – | – | – | 0.552 ± 0.012 | 0.517 ± 0.016 | 0.476 ± 0.016 | 0.456 ± 0.01
1 µM, coculture fibroblast: H6013 | – | – | – | – | – | 0.67 ± 0.018 | 0.649 ± 0.018 | 0.627 ± 0.016 | 0.6078 ± 0.0026
1 µM, coculture fibroblast: H6019 | – | – | – | – | – | 0.6073 ± 0.0053 | 0.5659 ± 0.0052 | 0.521 ± 0.0067 | 0.4875 ± 0.0024
1 µM, coculture fibroblast: H6076 | – | – | – | – | – | 0.742 ± 0.043 | 0.711 ± 0.041 | 0.699 ± 0.047 | 0.703 ± 0.042
1 µM, coculture fibroblast: H6231 | – | – | – | – | – | 0.617 ± 0.039 | 0.579 ± 0.027 | 0.537 ± 0.034 | 0.524 ± 0.029
1 µM, coculture fibroblast: HADF | – | – | – | – | – | 0.498 ± 0.044 | 0.461 ± 0.043 | 0.428 ± 0.045 | 0.421 ± 0.05
1 µM, coculture fibroblast: HCFa | – | – | – | – | – | 0.538 ± 0.045 | 0.491 ± 0.048 | 0.454 ± 0.041 | 0.426 ± 0.038
1 µM, coculture fibroblast: HCPF | – | – | – | – | – | 0.662 ± 0.053 | 0.631 ± 0.056 | 0.601 ± 0.057 | 0.59 ± 0.057
1 µM, coculture fibroblast: HHSteC | – | – | – | – | 0.632 ± 0.07 | 0.606 ± 0.075 | 0.565 ± 0.073 | 0.538 ± 0.076 | 0.502 ± 0.077
1 µM, coculture fibroblast: HMF | – | – | – | – | 0.733 ± 0.085 | 0.708 ± 0.1 | 0.662 ± 0.11 | 0.642 ± 0.12 | 0.621 ± 0.13
1 µM, coculture fibroblast: HPFa | – | – | – | – | 0.659 ± 0.032 | 0.616 ± 0.034 | 0.543 ± 0.011 | 0.488 ± 0.018 | 0.436 ± 0.015
1 µM, coculture fibroblast: HUF | – | – | – | – | 0.632 ± 0.024 | 0.608 ± 0.016 | 0.556 ± 0.011 | 0.52 ± 0.022 | 0.486 ± 0.017
1 µM, coculture fibroblast: Hs5 | – | – | – | – | 0.731 ± 0.028 | 0.705 ± 0.041 | 0.674 ± 0.043 | 0.652 ± 0.048 | 0.64 ± 0.05
1 µM, coculture fibroblast: Hs27A | – | – | – | – | 0.528 ± 0.073 | 0.521 ± 0.077 | 0.469 ± 0.063 | 0.442 ± 0.045 | 0.382 ± 0.046
1 µM, coculture fibroblast: Hs343T | – | – | – | – | 0.767 ± 0.1 | 0.75 ± 0.12 | 0.721 ± 0.13 | 0.714 ± 0.13 | 0.697 ± 0.14
1 µM, coculture fibroblast: WS1 | – | – | – | – | 0.676 ± 0.12 | 0.647 ± 0.12 | 0.611 ± 0.13 | 0.583 ± 0.14 | 0.563 ± 0.15
10 µM, coculture fibroblast: C12385 | 0.8859 ± 0.0048 | 0.8522 ± 0.0055 | 0.794 ± 0.014 | 0.736 ± 0.011 | 0.679 ± 0.024 | 0.64 ± 0.034 | 0.603 ± 0.04 | 0.559 ± 0.026 | 0.531 ± 0.013
10 µM, coculture fibroblast: H6013 | 0.821 ± 0.024 | 0.785 ± 0.027 | 0.774 ± 0.017 | 0.808 ± 0.014 | 0.718 ± 0.019 | 0.706 ± 0.029 | 0.698 ± 0.042 | 0.687 ± 0.048 | 0.773 ± 0.058
10 µM, coculture fibroblast: H6019 | 0.85992 ± 7.9e-05 | 0.849 ± 0.06 | 0.834 ± 0.077 | 0.767 ± 0.046 | 0.703 ± 0.034 | 0.684 ± 0.067 | 0.738 ± 0.21 | 0.762 ± 0.3 | 0.715 ± 0.3
10 µM, coculture fibroblast: H6076 | 0.8063 ± 0.0057 | 0.89 ± 0.0023 | 0.879 ± 0.012 | 0.789 ± 0.015 | 0.82 ± 0.017 | 0.807 ± 0.021 | 0.768 ± 0.034 | 0.739 ± 0.044 | 0.72 ± 0.03
10 µM, coculture fibroblast: H6231 | 0.841 ± 0.049 | 0.849 ± 0.0097 | 0.848 ± 0.075 | 0.671 ± 0.099 | 0.851 ± 0.2 | 0.807 ± 0.21 | 0.79 ± 0.24 | 0.755 ± 0.25 | 0.726 ± 0.26
10 µM, coculture fibroblast: HADF | 0.7357 ± 0.006 | 0.683 ± 0.014 | 0.67 ± 0.013 | 0.729 ± 0.011 | 0.596 ± 0.017 | 0.555 ± 0.02 | 0.537 ± 0.011 | 0.509 ± 0.02 | 0.641 ± 0.015
10 µM, coculture fibroblast: HCFa | 0.8487 ± 0.0035 | 0.8126 ± 0.005 | 0.817 ± 0.01 | 0.864 ± 0.025 | 0.775 ± 0.039 | 0.75 ± 0.051 | 0.719 ± 0.052 | 0.691 ± 0.057 | 0.741 ± 0.04
10 µM, coculture fibroblast: HCPF | 0.811 ± 0.027 | 0.869 ± 0.048 | 0.867 ± 0.021 | 0.747 ± 0.11 | 0.764 ± 0.059 | 0.726 ± 0.045 | 0.819 ± 0.14 | 0.763 ± 0.093 | 0.745 ± 0.12
10 µM, coculture fibroblast: HHSteC | 0.853 ± 0.011 | 0.8073 ± 0.0053 | 0.789 ± 0.018 | 0.783 ± 0.037 | 0.711 ± 0.031 | 0.681 ± 0.019 | 0.659 ± 0.025 | 0.639 ± 0.024 | 0.655 ± 0.036
10 µM, coculture fibroblast: HMF | 0.8221 ± 0.00083 | 0.952 ± 0.021 | 0.93036 ± 5e-06 | 0.761 ± 0.032 | 0.865 ± 0.013 | 0.8243 ± 0.0021 | 0.764 ± 0.0013 | 0.7265 ± 0.0072 | 0.6865 ± 0.0014
10 µM, coculture fibroblast: HPFa | 0.902 ± 0.015 | 0.84 ± 0.014 | 0.78654 ± 0.00049 | 0.687 ± 0.011 | 0.639 ± 0.026 | 0.606 ± 0.036 | 0.572 ± 0.029 | 0.531 ± 0.021 | 0.506 ± 0.025
10 µM, coculture fibroblast: HUF | 0.908 ± 0.026 | 0.851 ± 0.03 | 0.8242 ± 0.0027 | 0.7595 ± 0.0048 | 0.725 ± 0.025 | 0.685 ± 0.013 | 0.648 ± 0.017 | 0.608 ± 0.028 | 0.573 ± 0.025
10 µM, coculture fibroblast: Hs5 | 0.8526 ± 0.00091 | 0.9693 ± 0.0037 | 0.946 ± 0.0082 | 0.866 ± 0.015 | 0.829 ± 0.019 | 0.796 ± 0.021 | 0.751 ± 0.021 | 0.722 ± 0.027 | 0.69 ± 0.073
10 µM, coculture fibroblast: Hs27A | 0.7694 ± 0.0026 | 0.7336 ± 0.0064 | 0.70508 ± 0.0003 | 0.765 ± 0.0024 | 0.594 ± 0.0029 | 0.555 ± 0.008 | 0.537 ± 0.0065 | 0.518 ± 0.0079 | 0.6484 ± 0.0047
10 µM, coculture fibroblast: Hs343T | 0.8596 ± 0.0028 | 0.952 ± 0.063 | 0.97 ± 0.01 | 0.808 ± 0.022 | 0.887 ± 0.022 | 0.834 ± 0.013 | 0.784 ± 0.027 | 0.753 ± 0.025 | 0.696 ± 0.023
10 µM, coculture fibroblast: WS1 | 0.8645 ± 0.0038 | 0.8091 ± 0.0014 | 0.76978 ± 0.00071 | 0.722 ± 0.019 | 0.673 ± 0.031 | 0.636 ± 0.029 | 0.595 ± 0.023 | 0.559 ± 0.026 | 0.5299 ± 0.0048
